Test [1] deals with full-length Flag-CHD4 (chromodomain helicase DNA-binding protein 4) (UniProt Q14839). The test is described as follows: co-immunoprecipitation with anti-LANA antibody, 200 nM Flag-CHD4 and 200 nM Flag-LANA, with or without VGN73 or mutant peptide (1 or 10 µM), anti-CHD4 and anti-LANA immunoblot.
Test [2] has the same target. The test is described as follows: co-precipitation of purified Flag-LANA (200 nM) and Flag-CHD4 (200 nM) with anti-LANA antibody, with or without VGN73 or mutant peptide, immunoblot. (Immunoblotting shows a protein as a band on a membrane.)

Sequences of proteins named here, by UniProt entry; tags and fusion partners are left off.
UniProt Q14839: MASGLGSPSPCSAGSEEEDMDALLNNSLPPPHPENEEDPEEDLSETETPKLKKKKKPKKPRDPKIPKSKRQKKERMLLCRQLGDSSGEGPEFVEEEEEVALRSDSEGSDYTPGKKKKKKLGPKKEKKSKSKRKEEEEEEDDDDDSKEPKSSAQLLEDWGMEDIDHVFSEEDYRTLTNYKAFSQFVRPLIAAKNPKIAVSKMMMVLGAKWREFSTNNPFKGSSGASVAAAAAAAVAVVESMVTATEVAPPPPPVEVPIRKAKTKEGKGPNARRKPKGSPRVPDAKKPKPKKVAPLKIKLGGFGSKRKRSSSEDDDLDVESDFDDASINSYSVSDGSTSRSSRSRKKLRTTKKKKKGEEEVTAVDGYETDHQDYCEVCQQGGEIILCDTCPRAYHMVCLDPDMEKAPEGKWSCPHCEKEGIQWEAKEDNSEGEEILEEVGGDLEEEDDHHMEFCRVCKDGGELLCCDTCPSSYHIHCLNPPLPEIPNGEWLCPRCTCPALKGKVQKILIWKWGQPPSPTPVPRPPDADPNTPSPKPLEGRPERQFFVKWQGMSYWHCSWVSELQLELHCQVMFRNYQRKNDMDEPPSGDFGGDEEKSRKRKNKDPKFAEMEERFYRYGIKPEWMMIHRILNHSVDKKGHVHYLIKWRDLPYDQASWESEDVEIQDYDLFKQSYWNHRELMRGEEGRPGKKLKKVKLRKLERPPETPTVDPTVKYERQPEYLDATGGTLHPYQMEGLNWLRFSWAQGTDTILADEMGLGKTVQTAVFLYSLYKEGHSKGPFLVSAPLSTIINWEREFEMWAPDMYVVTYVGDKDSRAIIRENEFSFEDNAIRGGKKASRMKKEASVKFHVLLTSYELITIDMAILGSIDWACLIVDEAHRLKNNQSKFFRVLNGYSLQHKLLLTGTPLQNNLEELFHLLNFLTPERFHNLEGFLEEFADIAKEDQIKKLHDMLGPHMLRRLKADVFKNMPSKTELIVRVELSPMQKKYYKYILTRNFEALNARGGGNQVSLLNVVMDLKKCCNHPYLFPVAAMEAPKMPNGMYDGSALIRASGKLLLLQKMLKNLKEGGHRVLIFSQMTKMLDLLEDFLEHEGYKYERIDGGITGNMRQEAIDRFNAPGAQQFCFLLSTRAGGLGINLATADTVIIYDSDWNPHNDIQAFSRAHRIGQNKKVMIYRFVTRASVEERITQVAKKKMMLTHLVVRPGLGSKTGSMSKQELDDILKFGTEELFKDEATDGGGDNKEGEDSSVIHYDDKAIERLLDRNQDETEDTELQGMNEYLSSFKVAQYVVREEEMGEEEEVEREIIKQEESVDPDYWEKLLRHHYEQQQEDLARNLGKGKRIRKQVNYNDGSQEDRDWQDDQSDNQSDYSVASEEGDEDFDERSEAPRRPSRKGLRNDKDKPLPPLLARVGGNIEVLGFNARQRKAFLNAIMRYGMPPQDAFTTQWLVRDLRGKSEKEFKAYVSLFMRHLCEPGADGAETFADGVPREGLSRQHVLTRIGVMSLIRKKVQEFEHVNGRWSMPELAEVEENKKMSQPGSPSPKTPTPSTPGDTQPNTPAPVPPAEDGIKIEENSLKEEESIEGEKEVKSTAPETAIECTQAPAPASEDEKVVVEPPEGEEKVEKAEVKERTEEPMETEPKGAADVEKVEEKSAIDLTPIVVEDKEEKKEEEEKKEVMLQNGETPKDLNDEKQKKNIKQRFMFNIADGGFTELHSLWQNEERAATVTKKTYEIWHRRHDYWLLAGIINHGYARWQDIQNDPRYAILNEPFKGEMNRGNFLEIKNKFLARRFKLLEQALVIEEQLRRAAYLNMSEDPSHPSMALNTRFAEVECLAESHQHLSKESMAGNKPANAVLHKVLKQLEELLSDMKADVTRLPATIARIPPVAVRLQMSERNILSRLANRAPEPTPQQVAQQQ
UniProt Q9QR71: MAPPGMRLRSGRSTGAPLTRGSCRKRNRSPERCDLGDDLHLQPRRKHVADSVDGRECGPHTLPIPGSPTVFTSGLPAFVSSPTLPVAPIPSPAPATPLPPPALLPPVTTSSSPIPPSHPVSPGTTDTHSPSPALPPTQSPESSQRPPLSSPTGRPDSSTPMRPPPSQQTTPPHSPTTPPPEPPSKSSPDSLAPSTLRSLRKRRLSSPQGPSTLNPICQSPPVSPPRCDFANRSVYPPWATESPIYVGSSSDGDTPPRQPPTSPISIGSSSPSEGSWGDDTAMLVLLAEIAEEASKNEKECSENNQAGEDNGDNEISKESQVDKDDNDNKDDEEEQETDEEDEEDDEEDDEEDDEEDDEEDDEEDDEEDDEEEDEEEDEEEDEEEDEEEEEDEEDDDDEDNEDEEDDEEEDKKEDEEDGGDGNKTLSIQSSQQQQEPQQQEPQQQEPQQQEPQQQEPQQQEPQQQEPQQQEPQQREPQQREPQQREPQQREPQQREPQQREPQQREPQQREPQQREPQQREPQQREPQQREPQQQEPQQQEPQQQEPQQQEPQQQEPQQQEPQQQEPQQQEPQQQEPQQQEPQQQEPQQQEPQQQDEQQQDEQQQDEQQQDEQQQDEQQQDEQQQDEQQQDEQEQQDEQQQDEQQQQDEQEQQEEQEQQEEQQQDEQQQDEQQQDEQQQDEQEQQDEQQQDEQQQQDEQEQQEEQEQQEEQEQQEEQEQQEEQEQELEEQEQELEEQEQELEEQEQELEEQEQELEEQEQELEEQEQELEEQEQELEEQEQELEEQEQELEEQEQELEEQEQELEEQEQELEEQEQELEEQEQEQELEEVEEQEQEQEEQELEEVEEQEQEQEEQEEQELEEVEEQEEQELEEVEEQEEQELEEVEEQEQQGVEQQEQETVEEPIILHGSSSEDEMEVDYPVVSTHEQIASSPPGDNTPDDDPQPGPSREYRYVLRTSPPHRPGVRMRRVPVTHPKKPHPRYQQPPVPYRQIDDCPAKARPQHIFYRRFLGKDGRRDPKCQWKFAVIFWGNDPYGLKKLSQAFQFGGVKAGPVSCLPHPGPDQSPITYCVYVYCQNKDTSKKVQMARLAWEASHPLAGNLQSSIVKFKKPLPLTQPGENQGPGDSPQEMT

Results are given in words; binding and its absence hold for the method and conditions named. In cells and extracts the contact can be indirect. Some entries that bind do so weakly or less than the wild type.

Take “Flag-LANA (KSHV latency-associated nuclear antigen), full length (from UniProt Q9QR71 1-1129)”: the binding result in test [1] and in test [2] was “binds” in each case.
